# Assay results from paper PMC7898468, “TrkA-mediated endocytosis of p75-CTF prevents cholinergic neuron death upon γ-secretase inhibition” (Life Science Alliance, 2021).
# Results are given in words; binding and its absence hold for the method and conditions named. Tags and fused reporters may be left off the sequences shown.
# B1: C101-p75-C257A-3xFLAG (domain or fragment)
# chain: MVTTVMGSSQPVVTRGTTDNLIPVYASILAAVVVGLVAYIAFKRWNSCKQNKQGANSRPVNQTPPPEGEKLHSDSGISVDSQSLHDQQTHTQTASGQALKG
# Biological target: C101-p75-C257A-3xFLAG (rat)
# Assay: SDS-PAGE and Western blot with or without DTT; purified C101-p75-3xFLAG substrates, with or without DTT (20 mM), anti-FLAG blot; both purified
binder,measurement,value
B1,binding,no binding
